Data on 2 molecules can be found in PMC9010289.

By UniProt entry, the sequences of proteins in these tests, tags left out. Residues count along the entry.
UniProt Q9Z2I0, residues 115-738: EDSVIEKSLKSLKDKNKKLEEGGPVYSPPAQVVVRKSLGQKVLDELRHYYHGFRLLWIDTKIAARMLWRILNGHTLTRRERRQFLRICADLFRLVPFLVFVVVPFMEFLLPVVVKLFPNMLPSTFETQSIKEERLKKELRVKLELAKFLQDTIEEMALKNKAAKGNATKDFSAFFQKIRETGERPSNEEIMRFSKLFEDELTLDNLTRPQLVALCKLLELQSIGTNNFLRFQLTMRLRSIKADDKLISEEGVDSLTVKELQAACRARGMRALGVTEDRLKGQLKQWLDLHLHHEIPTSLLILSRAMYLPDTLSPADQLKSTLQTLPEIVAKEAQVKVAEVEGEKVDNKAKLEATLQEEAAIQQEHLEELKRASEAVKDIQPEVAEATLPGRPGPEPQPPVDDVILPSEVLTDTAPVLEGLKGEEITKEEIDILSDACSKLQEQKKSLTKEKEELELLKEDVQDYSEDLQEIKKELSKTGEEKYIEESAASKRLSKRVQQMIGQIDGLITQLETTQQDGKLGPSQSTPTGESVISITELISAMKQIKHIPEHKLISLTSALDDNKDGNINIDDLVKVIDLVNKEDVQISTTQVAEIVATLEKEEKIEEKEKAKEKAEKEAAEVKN
UniProt Q704Y3: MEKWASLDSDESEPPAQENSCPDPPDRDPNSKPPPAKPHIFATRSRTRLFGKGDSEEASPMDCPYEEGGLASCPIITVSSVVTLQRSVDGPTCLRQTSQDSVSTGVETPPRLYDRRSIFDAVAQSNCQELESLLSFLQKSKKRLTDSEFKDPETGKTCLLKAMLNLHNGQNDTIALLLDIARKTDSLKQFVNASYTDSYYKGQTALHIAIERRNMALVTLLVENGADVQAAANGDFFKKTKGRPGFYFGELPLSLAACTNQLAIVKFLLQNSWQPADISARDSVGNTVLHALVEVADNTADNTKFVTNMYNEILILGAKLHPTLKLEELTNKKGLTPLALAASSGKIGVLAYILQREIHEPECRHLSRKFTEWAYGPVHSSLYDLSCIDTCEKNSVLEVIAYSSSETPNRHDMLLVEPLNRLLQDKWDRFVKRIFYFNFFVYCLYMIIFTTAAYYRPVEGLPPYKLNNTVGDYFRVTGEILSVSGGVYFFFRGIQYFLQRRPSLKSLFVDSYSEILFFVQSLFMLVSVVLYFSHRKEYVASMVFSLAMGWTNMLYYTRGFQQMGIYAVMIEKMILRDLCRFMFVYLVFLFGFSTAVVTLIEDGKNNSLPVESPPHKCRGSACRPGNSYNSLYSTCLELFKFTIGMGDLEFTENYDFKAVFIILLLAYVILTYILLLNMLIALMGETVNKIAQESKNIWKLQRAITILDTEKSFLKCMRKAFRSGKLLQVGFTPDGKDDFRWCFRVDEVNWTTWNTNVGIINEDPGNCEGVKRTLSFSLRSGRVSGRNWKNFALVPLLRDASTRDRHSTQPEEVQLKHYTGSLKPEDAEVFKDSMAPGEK

What all share (assay): co-IP; mouse BAT mitochondria of WT mice in lysis buffer; 1 µg anti-TRPV1/UCP1/LETM1 primary antibody or IgG overnight; protein A agarose; detected by immunoblotting
On the technique in general: In western blotting, separated proteins are transferred to a membrane and probed.

Assay [1] addresses Leucine zipper-EF-hand containing transmembrane protein 1 (mouse (endogenous in brown adipose tissue)) (UniProt Q9Z2I0).
For assay [2], the target named is T1, Uncoupling protein 1 (mouse (endogenous in brown adipose tissue)) (UniProt P12242).
T1 sequence: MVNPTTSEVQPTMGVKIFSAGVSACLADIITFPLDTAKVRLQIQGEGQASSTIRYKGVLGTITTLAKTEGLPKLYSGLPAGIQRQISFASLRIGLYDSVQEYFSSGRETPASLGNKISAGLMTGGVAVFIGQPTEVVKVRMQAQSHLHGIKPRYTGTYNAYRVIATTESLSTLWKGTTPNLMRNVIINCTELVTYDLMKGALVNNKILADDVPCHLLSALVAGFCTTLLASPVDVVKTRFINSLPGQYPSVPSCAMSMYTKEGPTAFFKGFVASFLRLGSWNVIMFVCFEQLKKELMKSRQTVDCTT

Assay [3] deals with Leucine zipper-EF-hand containing transmembrane protein 1 (mouse (endogenous in brown adipose tissue)) (UniProt Q9Z2I0). This is another data set of the same source.

Like-named read-outs stand apart in the source and are kept apart here. These are yes or no findings as the source states them, for the method shown. In cells and extracts the contact can be indirect. Some results given as binding are weak or reduced against the parent protein; the word gives no strength.

As to “Transient receptor potential vanilloid-1 (from UniProt Q704Y3 1-839)”, the binding entry in assay [1] and in assay [2] was “binds” in each case.

B1: Uncoupling protein 1 (protein, UniProt P12242 1-307)
chain: T1 sequence
Consider B1, for which the binding result in assay [3] was “binds”.
